Earlier results in patent publication US20220175799A1, “COMPOSITIONS HAVING THE ABILITY TO PROMOTE HEALTHY CHOLESTEROL LEVELS” (Brilliant Lab LLC, priority 2020, published 2022).
Where two headings read alike, the source gives them in different places. At least one structure is not confirmed: it was looked up by name or label, or the drawing left a doubt.

Legend:
[1] = not given; remark: listed apart in the source

## CC[C@H](C)C(=O)O[C@H]1C[C@H](O)C=C2C=C[C@H](C)[C@H](CC[C@@H](O)C[C@@H](O)CC(=O)O)[C@H]21 [Pravastatin]
Statin daily oral dose 5 mg
  Reduction in LDL-C levels: 28.2291 mg/dL
Statin daily oral dose 10 mg
  Reduction in LDL-C levels: 36.7365 mg/dL
Statin daily oral dose 20 mg
  Reduction in LDL-C levels: 45.2439 mg/dL
Statin daily oral dose 40 mg
  Reduction in LDL-C levels: 53.3646 mg/dL
Statin daily oral dose 80 mg
  Reduction in LDL-C levels: 61.872 mg/dL
[1]; statin dose 10 mg
  % LDL-C Reduction: 20%
[1]; statin dose 20 mg
  % LDL-C Reduction: 30%
[1]; statin dose 40 mg
  % LDL-C Reduction: 32%
[1]; statin dose 80 mg
  % LDL-C Reduction: 36%
